Reference: US8889881B2, “Compound having skin-whitening, anti-oxidizing and PPAR activities and medical use therefor” (Pusan National University Industry —University Cooperation …, priority 2011, dated 2014)
At least one compound was matched to its structure with a doubt left.

Tested on: YPEN-1 cells (rat prostatic endothelial cell line)
Assay: In vitro ROS scavenging activity assay (DCFDA)
Type: cell-based
Conditions: cells pre-treated with 50 μM SIN-1 for 1 hour; DCFDA fluorescence; positive control trolox; FIGS. 1 and 2
Procedure: YPEN-1 cells (rat prostatic endothelial cell line) was obtained from American type culture collection (ATCC, Manassas, Va., USA), and the cells were cultured by using a dulbecco's modified eagle medium (DMEM, Nissui, Tokyo, Japan) containing 2 mM L-glutamine, […], 2.5 mg/L amphotericin B, and 5% inactivated fetal bovine serum (FBS). Also, the cells were maintained at a temperature of 37° C. in a humid atmosphere-like condition containing 5% CO2 and 95% air. […] The cells were sub-cultured in 100 mm plastic flask (Corning Co., New York, USA) every two days to maintain the cell line.
2′,7′-dichlorodihydrofluorescein diacetate (DCFDA) assay method according to a conventionally known method (Chem Res Toxicol. 5: 227-231, 1992) was used. In detail, 12.5 mM DCFDA dissolved in 99.9% ethanol and 600 U/ml esterase dissolved in tertiary distilled water were stored as a stock solution at a temperature of −20° C., and a 2′,7′-dichlorodihydrofluorescein (DCFH) solution prepared by mixing 10 mM DCFDA and 6 U/ml esterase was cultured at a temperature of 22° C. for 20 minutes, and then, refrigerated in a dark place before use. […] Vascular endothelial cells that were pre-treated with 50 μM 3-morpholinosydnonimine hydrochloride (SIN-1) for 1 hour were used as a reactive oxygen generation source.

## COC(=O)[C@@H]1CSC(c2ccc(OC(C)=O)c(OC(C)=O)c2)N1 (mixture of isomers) [Compound 105, 4-((2R/S,4R)-4-(methoxycarbonyl)thiazolidin-2-yl)-1,2-phenylene diacetate]
  scavenging effects on ROS generated by vascular endothelial cells, compared with trolox: as high scavenging effects on ROS generated by vascular endothelial cells as trolox
